Test results reported in the supplement of paper PMC12067093, “Discovery and optimisation of a covalent ligand for TRIM25 and its application to targeted protein ubiquitination” (Chemical Science, 2025).
The list shows a part of the results.

Sequences of proteins named here, by UniProt entry; tags and fusion partners are left off. A change or cut given only in a name is not applied to a line headed by its entry.
UniProt O95825: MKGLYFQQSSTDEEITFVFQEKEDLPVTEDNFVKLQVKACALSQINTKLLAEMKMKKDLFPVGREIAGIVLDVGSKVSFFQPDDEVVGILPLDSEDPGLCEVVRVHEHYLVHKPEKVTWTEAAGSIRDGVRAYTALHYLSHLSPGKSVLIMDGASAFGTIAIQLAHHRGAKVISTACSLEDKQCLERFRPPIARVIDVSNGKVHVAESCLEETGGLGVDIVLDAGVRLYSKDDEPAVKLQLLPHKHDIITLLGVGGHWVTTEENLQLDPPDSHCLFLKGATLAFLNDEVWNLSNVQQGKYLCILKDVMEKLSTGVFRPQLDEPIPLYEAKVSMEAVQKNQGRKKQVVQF
UniProt P23786: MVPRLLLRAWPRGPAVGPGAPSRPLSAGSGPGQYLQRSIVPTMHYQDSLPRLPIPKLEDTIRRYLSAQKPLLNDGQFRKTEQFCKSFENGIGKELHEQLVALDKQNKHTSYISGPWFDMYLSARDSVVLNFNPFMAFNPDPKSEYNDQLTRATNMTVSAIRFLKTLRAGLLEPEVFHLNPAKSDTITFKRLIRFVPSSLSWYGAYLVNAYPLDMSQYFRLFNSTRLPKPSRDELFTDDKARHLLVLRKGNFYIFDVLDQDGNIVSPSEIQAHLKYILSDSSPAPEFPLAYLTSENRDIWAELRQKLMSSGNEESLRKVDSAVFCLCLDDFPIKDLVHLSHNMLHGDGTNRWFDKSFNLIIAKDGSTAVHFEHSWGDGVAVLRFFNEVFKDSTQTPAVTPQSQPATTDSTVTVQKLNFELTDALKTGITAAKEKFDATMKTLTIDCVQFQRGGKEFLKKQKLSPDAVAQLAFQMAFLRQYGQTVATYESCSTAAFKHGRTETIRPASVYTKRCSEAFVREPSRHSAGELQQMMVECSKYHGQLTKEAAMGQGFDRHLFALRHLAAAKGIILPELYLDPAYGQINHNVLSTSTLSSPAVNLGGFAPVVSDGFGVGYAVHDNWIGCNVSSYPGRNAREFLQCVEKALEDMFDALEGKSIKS
UniProt Q6QEF8, whole entry, looked up: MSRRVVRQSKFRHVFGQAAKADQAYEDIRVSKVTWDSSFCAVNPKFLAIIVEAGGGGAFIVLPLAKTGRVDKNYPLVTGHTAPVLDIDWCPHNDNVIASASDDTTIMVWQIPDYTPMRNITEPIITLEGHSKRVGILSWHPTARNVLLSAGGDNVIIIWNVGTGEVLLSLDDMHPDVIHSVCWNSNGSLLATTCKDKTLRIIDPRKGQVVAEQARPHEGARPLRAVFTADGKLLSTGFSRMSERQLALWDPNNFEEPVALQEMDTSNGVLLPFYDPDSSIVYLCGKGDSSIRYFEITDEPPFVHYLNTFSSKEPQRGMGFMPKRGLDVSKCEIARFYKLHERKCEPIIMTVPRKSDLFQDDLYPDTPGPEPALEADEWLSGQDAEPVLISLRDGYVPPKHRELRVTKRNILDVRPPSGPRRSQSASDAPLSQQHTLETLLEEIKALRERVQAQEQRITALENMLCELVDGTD
UniProt P31146: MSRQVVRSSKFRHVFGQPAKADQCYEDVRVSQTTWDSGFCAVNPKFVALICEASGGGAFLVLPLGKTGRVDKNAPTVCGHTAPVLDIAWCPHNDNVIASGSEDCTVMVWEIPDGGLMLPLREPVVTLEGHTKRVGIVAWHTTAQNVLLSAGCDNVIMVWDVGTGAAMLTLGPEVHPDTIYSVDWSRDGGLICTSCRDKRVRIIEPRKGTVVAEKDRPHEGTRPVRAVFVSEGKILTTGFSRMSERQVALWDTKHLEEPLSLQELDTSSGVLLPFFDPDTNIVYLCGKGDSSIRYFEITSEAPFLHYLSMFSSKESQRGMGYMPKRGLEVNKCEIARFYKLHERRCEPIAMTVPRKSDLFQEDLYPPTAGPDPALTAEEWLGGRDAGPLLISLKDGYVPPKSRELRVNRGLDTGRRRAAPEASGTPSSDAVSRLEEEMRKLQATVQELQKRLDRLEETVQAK
UniProt Q05048: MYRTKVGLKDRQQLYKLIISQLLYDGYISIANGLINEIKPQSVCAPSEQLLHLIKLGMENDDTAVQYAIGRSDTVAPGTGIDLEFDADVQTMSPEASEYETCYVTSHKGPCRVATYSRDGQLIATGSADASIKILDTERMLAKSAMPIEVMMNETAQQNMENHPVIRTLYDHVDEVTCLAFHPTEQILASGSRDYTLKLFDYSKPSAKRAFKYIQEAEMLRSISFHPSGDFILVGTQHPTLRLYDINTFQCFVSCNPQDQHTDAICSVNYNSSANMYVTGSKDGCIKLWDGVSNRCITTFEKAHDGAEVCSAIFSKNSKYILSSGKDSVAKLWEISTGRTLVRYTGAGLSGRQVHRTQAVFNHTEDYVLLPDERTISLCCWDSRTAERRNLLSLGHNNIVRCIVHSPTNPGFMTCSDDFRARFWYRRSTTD
UniProt P55060: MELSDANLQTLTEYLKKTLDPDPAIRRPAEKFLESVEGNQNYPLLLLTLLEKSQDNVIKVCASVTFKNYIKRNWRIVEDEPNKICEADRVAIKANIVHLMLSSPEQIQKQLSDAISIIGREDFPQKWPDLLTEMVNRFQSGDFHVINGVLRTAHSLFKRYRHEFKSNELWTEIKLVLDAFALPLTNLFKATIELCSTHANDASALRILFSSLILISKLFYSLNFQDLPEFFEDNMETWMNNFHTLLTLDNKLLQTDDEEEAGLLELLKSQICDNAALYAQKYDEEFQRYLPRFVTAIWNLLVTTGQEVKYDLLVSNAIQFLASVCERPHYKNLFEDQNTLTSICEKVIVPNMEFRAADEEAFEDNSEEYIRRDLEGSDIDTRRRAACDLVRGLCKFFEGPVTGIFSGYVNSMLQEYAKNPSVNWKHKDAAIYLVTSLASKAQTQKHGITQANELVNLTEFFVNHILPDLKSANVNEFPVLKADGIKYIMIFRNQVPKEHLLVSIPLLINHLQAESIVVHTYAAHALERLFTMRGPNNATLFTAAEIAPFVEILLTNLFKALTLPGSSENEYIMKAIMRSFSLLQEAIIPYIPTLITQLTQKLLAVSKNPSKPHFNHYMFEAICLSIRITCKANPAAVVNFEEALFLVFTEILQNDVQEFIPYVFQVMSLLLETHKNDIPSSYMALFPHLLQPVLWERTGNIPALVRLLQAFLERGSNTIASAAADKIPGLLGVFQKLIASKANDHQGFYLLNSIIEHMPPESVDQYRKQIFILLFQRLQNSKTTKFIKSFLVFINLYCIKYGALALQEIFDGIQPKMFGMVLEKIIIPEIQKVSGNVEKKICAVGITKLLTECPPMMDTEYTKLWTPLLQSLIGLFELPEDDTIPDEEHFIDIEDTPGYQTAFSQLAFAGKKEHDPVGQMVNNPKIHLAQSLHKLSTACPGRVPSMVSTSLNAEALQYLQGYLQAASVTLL
UniProt O75534: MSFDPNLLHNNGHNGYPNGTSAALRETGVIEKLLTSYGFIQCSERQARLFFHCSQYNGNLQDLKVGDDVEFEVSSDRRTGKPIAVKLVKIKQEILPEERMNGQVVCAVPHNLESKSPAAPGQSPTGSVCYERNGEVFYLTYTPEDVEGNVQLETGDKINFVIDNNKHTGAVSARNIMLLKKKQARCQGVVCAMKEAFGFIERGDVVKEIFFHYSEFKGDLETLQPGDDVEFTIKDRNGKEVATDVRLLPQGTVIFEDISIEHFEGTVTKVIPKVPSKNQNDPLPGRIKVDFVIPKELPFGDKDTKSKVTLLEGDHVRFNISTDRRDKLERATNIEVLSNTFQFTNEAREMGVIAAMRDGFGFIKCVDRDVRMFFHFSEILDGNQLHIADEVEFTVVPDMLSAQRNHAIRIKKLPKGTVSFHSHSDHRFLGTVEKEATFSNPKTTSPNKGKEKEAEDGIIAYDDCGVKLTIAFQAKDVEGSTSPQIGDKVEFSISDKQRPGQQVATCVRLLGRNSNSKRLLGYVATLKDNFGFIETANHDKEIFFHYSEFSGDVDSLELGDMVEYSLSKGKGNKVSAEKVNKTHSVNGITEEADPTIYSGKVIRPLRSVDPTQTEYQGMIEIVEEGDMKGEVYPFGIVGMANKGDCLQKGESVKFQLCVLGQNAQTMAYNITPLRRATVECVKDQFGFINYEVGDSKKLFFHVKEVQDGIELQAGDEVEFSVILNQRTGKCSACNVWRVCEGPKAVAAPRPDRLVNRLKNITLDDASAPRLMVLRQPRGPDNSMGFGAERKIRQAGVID
UniProt Q12996: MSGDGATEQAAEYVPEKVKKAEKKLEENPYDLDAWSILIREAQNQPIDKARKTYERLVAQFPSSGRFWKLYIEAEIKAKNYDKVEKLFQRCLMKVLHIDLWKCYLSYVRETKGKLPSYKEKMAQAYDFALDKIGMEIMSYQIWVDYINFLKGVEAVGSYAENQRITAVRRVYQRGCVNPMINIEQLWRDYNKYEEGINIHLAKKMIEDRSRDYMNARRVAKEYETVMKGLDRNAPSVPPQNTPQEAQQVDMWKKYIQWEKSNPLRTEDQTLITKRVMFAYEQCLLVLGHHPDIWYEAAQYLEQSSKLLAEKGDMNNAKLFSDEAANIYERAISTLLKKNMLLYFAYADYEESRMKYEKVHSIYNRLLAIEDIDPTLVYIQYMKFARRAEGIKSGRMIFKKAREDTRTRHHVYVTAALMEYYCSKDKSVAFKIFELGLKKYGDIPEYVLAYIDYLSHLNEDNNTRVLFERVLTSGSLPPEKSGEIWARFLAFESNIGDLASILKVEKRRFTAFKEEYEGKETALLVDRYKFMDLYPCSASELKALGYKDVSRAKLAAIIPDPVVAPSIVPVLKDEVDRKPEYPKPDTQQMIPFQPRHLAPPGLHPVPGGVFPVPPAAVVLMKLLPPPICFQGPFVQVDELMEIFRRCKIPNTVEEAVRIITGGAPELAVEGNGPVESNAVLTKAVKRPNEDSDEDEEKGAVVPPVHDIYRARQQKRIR
UniProt P35221: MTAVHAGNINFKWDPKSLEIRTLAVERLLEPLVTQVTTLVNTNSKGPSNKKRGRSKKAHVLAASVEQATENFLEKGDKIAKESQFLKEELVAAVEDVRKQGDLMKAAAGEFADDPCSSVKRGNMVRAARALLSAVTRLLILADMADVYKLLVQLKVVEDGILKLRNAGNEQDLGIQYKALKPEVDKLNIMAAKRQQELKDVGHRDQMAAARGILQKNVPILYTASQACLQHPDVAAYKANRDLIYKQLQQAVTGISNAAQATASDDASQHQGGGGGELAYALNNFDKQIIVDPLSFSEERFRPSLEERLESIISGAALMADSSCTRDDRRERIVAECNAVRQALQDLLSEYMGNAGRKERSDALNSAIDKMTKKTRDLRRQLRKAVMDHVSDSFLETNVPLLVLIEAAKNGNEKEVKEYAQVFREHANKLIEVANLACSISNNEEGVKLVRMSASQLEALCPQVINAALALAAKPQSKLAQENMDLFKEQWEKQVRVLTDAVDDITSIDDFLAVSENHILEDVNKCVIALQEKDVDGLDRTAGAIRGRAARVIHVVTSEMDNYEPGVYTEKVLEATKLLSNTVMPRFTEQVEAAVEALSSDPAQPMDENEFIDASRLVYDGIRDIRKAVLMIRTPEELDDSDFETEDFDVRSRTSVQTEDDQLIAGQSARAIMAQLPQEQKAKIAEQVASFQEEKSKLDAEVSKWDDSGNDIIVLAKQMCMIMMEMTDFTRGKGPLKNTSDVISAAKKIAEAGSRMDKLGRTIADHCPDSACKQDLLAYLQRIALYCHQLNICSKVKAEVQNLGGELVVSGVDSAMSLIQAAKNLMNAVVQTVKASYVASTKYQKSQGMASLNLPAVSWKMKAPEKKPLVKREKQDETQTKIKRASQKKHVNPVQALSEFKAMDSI
UniProt P50416: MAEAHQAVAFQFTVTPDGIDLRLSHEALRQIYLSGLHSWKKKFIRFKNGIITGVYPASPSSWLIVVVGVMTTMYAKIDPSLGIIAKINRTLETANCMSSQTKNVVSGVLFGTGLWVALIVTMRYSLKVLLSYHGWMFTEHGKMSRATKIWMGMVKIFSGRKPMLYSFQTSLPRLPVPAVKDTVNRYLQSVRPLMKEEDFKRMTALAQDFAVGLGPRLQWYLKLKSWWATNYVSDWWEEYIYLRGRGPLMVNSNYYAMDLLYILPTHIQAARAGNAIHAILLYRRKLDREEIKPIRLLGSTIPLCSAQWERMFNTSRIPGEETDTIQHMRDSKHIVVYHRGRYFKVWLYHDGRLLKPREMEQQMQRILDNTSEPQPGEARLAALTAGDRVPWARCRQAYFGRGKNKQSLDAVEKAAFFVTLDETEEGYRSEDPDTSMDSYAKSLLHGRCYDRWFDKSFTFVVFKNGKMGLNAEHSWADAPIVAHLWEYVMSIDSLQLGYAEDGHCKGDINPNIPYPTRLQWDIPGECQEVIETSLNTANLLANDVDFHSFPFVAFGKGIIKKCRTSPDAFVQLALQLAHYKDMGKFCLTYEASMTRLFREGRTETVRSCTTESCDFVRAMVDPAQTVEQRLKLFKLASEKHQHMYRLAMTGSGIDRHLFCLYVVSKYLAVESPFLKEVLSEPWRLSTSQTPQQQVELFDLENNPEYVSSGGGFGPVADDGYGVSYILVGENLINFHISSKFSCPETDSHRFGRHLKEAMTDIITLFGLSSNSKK

Compound: CC1Cc2ccccc2N1C(=O)C1CCCN(C1)C(=O)CCl (mixture of isomers) [TRIM25 ligand 11 (diastereomer mixture)]
Assay: probe-labelled cysteine peptide fold change vs DMSO (competition) (log2 fold change); higher = less target engagement (more negative = stronger competition)
Settings: THP-1, incubation time: 4 h
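Note: competitive chemoproteomic profiling in live THP-1 cells with an iodoacetamide desthiobiotin (IA-DTB) probe, comparing probe-labelled peptide intensities in compound-treated cells against DMSO-treated controls.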

Target	probe-labelled cysteine peptide fold change (10 µM)	probe-labelled cysteine peptide fold change (50 µM)
CRYZL1_O95825_302_YLCILK (UniProt O95825)	-0.0748	-0.019
CPT2_P23786_639_EFLQCVEK (UniProt P23786)	0.105	0.149
CORO6_Q6QEF8_344_KCEPIIMTVPR (UniProt Q6QEF8)	-0.0909	-0.0964
CTCF_P49711_577_HADNCAGPDGVEGENGGETK (UniProt P49711)	0.0657	-0.0244
CTDP1_Q9Y5B0_201_LVLMVDLDQTLIHTTEQHCQQMSNK (UniProt Q9Y5B0)	0.129	-0.196
CORO1A_P31146_332_RGLEVNKCEIAR (UniProt P31146)	-0.603	-0.342
CSNK2B_P67870_114_VYCENQPMLPIGLSDIPGEAMVK (UniProt P67870)	-0.0693	-0.262
CSTF1_Q05048_310_AHDGAEVCSAIFSK (UniProt Q05048)	-0.0154	0.0736
CPNE8_Q86YQ8_143_CGTIILTAEELNCCR (UniProt Q86YQ8)	-0.0909	-0.0884
CTNNBL1_Q8WYA6_408_EHEEHVCSILASLLR (UniProt Q8WYA6)	-0.143	-0.0712
CSE1L_P55060_272_SQICDNAALYAQK (UniProt P55060)	0.394	0.0435
CTBS_Q01459_281_GAPCSDAAGR (UniProt Q01459)	-0.0997	-0.105
CORO1C_Q9ULV4_283_NMQEPIALHEMDTSNGVLLPFYDPDTSIIYLCGK (UniProt Q9ULV4)	-0.0943	0.0583
CSK_P41240_164_LSIDEEVYFENLMQLVEHYTSDADGLCTR (UniProt P41240)	-0.227	-0.228
CSDE1_O75534_42_LLTSYGFIQCSER (UniProt O75534)	-0.0145	0.0173
CRABP1_P29762_96_IHCTQTLLEGDGPK (UniProt P29762)	0.099	-0.0749
CRYZL1_O95825_177_VISTACSLEDK (UniProt O95825)	0.0726	0.107
CTNNA2_P26232_322_LESIISGAALMADSSCTR (UniProt P26232)	0.16	-0.132
CPSF4_O95639_110_ECPFLHIDPESK (UniProt O95639)	0.00281	0.0403
CTBP2_P56545_60_DLATVAFCDAQSTQEIHEK (UniProt P56545)	-0.0351	0.0026

Target	probe-labelled cysteine peptide fold change (10 µM)	probe-labelled cysteine peptide fold change (50 µM)
CSTF3_Q12996_536_FMDLYPCSASELK (UniProt Q12996)	-0.078	0.035
CSDE1_O75534_506_QRPGQQVATCVR (UniProt O75534)	-0.0532	-0.0997
CPOX_P36551_373_HCDDSFTPQEK (UniProt P36551)	-0.0342	0.116
CREBBP_Q92793_1213_KYEFSPQTLCCYGK (UniProt Q92793)	0.0691	-0.0234
CPSF6_Q16630_159_RELHGQNPVVTPCNK (UniProt Q16630)	0.0106	-0.112
CTNNA1_P35221_438_LIEVANLACSISNNEEGVK (UniProt P35221)	0.269	0.265
CORO1B_Q9BR76_195_LDSLHPDLIYNVSWNHNGSLFCSACK (UniProt Q9BR76)	0.371	0.0874
CPS1_P31327_1256_GNDVLVIECNLR (UniProt P31327)	-0.0458	0.0903
CTNNA1_P35221_116_AAAGEFADDPCSSVK (UniProt P35221)	0.134	0.0576
CSDE1_O75534_464_EKEAEDGIIAYDDCGVK (UniProt O75534)	-0.346	-0.451
CRTAP_O75718_243_AFYECLAACEGSR (UniProt O75718)	1.6e-06	0.261
CTNND1_O60716_394_SNAAAYLQHLCYR (UniProt O60716)	-0.172	0.00849
CPM_P14384_138_KPDCYYSIGR (UniProt P14384)	-0.00986	-0.0592
CPSF1_Q10570_1102_IELQEWEHVTCMK (UniProt Q10570)	0.0551	0.00871
CPNE3_O75131_54_NCLNPQFSK (UniProt O75131)	-0.0274	-0.0962
CPT1A_P50416_608_SCTTESCDFVR (UniProt P50416)	0.121	0.357
CORO7_P57737_790_TECDVREVELMR (UniProt P57737)	-0.505	-0.274
CSDE1_O75534_730_CSACNVWR (UniProt O75534)	0.0252	0.0371
CPT2_P23786_535_HSAGELQQMMVECSK (UniProt P23786)	-0.00982	-0.219
